We go through one substance from PMC5661634.

Chains of the proteins cited; added tags and fusions are not shown.
UniProt Q13596: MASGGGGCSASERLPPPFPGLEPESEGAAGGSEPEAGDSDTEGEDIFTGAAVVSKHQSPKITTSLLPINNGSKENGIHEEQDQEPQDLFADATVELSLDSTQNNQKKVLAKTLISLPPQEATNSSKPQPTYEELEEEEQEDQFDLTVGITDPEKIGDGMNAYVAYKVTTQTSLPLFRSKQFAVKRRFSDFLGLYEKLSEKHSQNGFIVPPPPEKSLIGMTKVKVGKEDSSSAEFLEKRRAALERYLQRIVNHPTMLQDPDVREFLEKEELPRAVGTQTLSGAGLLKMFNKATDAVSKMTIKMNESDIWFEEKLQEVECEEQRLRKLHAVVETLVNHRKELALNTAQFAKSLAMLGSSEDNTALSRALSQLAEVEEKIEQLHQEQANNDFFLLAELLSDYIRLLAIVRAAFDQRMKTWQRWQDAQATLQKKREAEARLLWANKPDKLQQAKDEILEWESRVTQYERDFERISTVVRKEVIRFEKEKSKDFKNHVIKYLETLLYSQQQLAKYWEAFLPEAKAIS

No constants are given. Whether binding was seen depends on the method and setting. Binding seen in cells or lysates may run through a third protein. Some entries that bind do so weakly or less than the wild type. Where a sequence is shown, tags or fusion partners need not be part of it.

The experiment concerns the target T1, Flag-YFP-SNX6 WT (UniProt Q9UNH7).
T1 sequence: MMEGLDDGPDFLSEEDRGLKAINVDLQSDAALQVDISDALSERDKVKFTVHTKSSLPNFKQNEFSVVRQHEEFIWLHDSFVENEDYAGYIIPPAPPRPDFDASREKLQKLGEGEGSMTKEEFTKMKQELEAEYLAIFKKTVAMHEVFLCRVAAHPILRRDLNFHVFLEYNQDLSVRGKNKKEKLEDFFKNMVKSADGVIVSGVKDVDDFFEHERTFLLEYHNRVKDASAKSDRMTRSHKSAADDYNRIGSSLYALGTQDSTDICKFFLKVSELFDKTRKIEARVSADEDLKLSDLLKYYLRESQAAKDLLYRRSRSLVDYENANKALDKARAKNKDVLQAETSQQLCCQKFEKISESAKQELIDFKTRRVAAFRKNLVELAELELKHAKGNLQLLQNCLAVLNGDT
In words: co-IP; HEK293T transfected with Flag-YFP-SNX6 constructs; p100 fractions immunopurified with anti-Flag antibody; blotted with anti-SNX1 and anti-Flag.

Regarding “SNX1 (endogenous) (from UniProt Q13596 1-522)”, the binding entry is “binds”.
